Data: the supplement of paper PMC10849652
The list shows a part of the results.

By UniProt entry, the sequences of proteins in these tests, tags left out. Where a name states a change or a piece, a line headed by the entry shows the natural chain unless it says otherwise.
UniProt Q96AT9: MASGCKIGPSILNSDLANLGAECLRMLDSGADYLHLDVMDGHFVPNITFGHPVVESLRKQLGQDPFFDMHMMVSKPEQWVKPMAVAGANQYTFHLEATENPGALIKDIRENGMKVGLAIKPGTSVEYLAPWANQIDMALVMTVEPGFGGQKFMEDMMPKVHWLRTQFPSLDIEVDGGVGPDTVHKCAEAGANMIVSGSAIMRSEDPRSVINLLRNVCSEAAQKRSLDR
UniProt Q9BRS2: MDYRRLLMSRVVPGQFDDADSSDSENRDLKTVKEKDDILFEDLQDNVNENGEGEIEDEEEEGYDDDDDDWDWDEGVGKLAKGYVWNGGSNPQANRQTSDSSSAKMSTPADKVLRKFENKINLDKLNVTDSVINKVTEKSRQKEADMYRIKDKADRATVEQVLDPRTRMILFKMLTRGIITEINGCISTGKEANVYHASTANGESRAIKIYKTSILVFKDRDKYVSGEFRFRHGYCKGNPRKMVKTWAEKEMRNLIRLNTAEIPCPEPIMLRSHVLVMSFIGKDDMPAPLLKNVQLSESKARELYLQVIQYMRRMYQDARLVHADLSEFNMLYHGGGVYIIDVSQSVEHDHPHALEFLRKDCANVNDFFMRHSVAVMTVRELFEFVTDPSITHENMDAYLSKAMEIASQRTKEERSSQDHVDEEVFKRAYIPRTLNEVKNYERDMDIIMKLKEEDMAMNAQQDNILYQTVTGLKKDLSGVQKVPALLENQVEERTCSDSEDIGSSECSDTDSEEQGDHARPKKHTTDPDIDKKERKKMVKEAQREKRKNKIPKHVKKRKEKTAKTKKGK
UniProt Q9H9A7: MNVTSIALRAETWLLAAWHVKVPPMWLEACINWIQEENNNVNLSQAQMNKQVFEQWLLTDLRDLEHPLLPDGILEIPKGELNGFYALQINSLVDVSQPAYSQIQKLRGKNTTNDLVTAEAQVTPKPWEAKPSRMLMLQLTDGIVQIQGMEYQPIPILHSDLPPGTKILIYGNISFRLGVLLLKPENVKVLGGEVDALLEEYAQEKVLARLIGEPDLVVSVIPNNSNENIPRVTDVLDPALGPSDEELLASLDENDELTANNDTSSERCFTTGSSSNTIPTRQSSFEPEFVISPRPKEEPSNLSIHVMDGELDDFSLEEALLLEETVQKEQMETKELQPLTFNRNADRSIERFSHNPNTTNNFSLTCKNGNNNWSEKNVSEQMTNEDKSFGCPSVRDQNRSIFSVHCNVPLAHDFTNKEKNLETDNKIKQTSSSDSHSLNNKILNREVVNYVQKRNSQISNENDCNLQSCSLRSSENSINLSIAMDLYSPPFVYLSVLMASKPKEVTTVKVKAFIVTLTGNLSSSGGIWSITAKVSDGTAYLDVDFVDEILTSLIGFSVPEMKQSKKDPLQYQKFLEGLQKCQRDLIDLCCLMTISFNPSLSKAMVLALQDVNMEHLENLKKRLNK
UniProt Q06587: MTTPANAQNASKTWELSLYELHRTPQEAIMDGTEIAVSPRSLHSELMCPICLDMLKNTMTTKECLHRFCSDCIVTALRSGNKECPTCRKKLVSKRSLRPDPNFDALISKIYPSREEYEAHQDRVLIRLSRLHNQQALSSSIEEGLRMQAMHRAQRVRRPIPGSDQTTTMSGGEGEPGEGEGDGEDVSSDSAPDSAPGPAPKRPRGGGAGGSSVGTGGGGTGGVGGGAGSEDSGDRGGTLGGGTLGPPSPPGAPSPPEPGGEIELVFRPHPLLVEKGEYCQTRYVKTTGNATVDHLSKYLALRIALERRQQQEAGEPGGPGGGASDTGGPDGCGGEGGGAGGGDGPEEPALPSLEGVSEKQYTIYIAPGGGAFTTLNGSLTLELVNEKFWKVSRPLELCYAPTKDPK
UniProt Q9H6T3, whole entry, looked up: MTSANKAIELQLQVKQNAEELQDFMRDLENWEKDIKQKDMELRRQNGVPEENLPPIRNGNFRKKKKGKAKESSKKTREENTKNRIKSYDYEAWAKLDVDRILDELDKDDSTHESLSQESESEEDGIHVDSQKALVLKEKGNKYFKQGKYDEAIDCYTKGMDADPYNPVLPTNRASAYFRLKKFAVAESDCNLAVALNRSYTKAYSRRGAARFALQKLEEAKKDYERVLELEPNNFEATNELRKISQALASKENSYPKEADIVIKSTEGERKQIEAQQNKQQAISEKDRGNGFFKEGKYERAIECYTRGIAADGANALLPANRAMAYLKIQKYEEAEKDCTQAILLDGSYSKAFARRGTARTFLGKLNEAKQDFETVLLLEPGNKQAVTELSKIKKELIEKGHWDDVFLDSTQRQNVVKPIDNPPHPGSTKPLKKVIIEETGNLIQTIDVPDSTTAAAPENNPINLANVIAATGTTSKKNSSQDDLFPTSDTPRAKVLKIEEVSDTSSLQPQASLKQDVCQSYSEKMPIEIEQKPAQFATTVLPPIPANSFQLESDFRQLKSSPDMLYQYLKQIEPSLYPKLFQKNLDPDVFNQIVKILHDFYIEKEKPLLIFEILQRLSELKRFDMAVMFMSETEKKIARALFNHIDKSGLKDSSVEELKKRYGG
UniProt Q15287: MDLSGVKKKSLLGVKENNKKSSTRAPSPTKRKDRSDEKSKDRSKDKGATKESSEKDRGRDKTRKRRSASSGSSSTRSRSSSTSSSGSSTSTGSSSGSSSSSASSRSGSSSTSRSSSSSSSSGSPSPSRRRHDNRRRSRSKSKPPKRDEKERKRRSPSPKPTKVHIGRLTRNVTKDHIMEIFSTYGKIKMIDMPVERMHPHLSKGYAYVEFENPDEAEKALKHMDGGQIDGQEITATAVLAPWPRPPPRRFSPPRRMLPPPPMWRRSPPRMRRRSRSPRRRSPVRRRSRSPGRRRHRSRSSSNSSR
UniProt O14730: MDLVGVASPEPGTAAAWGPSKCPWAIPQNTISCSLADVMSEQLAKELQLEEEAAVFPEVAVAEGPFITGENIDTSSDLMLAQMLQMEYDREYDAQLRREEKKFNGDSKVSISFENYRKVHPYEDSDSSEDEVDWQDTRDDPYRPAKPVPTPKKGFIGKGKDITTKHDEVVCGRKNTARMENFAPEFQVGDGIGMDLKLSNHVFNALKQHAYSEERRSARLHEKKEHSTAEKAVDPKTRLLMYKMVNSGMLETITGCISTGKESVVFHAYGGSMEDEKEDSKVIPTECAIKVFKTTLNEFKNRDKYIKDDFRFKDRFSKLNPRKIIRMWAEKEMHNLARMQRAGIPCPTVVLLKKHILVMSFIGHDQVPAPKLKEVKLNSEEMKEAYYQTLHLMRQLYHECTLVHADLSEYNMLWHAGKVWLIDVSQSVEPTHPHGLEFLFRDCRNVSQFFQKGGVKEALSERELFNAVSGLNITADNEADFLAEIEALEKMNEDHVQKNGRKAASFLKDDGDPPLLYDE
UniProt Q13464: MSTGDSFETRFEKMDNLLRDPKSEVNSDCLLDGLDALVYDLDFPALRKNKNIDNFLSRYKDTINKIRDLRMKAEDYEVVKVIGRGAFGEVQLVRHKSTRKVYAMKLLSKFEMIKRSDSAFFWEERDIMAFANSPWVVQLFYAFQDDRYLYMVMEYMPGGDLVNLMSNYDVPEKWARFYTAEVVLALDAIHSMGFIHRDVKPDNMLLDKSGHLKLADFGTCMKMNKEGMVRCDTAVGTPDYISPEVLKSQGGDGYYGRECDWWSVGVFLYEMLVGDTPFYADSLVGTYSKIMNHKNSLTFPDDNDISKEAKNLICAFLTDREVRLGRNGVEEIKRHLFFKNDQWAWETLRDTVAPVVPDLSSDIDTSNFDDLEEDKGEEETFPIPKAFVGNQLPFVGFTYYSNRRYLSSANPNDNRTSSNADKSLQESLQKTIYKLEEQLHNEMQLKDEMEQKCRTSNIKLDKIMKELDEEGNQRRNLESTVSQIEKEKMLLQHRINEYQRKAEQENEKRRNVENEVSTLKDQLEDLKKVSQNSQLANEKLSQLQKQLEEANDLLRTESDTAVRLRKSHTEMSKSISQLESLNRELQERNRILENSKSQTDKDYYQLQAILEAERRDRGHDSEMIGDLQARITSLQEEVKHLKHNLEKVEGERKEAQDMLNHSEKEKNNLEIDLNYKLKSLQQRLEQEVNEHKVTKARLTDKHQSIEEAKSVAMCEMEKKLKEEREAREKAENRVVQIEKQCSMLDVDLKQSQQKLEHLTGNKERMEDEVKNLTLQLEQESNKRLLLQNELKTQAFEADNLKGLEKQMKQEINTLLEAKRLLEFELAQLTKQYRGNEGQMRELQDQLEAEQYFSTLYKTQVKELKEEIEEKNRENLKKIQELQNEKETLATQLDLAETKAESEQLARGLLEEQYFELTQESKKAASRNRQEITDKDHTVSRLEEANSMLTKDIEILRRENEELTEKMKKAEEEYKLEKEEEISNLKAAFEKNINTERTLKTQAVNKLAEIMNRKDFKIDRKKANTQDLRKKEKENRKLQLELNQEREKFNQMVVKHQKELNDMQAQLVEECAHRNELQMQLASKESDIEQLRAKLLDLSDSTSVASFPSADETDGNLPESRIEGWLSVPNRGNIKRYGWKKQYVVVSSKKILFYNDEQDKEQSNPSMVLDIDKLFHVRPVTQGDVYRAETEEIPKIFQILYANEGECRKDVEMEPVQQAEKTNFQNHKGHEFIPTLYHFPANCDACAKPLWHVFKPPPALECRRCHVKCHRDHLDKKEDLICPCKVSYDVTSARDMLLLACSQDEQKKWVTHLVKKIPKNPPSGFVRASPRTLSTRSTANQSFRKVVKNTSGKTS
UniProt Q9Y508: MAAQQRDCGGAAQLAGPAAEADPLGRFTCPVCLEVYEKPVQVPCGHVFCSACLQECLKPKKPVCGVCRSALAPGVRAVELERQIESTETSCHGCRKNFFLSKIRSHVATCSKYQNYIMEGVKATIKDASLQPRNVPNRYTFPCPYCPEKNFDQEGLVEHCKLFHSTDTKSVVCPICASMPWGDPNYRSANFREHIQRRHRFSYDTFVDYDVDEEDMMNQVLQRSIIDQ
UniProt Q8WVD5: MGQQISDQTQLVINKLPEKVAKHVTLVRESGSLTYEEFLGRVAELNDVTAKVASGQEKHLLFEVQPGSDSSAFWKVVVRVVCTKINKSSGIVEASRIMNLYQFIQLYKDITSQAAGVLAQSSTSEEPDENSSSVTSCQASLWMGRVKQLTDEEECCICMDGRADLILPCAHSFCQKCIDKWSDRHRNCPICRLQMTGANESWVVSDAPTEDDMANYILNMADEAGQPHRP
UniProt Q9GZN7, whole entry, looked up: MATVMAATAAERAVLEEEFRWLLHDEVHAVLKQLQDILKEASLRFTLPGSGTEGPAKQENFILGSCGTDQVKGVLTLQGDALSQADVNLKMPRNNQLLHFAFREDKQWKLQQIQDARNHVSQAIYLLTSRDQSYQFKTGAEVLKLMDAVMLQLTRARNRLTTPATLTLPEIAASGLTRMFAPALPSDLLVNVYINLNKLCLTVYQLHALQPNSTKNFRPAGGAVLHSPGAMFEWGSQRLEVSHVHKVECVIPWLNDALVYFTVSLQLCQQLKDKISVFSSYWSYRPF
UniProt Q8IYW5, whole entry, looked up: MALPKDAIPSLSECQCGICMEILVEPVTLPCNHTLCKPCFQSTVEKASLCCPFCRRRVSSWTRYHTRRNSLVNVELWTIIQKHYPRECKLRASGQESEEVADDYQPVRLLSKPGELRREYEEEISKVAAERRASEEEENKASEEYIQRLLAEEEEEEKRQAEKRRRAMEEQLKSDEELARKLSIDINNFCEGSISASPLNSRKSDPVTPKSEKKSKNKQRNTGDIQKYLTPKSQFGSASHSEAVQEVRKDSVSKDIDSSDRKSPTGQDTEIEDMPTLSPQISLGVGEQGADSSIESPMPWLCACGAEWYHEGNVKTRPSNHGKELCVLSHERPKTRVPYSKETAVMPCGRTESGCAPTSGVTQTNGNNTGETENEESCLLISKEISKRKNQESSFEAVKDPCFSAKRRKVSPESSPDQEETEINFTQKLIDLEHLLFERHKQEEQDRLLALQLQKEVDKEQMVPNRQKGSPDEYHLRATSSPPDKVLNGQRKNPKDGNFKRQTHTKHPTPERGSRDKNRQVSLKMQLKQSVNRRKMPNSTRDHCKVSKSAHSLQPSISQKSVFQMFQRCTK
UniProt Q8NC42: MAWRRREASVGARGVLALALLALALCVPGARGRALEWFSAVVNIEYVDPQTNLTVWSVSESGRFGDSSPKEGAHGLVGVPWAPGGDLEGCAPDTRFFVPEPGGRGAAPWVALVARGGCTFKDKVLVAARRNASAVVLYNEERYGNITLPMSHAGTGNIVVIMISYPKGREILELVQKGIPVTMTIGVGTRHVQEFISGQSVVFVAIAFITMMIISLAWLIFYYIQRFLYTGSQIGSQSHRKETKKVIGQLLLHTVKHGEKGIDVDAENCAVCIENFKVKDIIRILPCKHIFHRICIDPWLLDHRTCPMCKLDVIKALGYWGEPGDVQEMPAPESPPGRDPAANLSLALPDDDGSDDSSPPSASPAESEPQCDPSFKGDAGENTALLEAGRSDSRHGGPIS

Experiments:
Assay in all cases: log2 fold change, soluble protein after heating vs DMSO (PISA); higher = thermal stabilisation; K562 lysate, 10 uM; active = over 0.2 and 3.5 SD of the protein, either way, in both replicates (recomputed)
[1] = compound: CS(=O)(=O)CCNCc1ccc(-c2ccc3ncnc(Nc4ccc(OCc5cccc(F)c5)c(Cl)c4)c3c2)o1 [lapatinib]
In short: (§1)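 Values give the log-two fold change in thermal stability against solvent controls, from duplicates. Crude K562 extract at 1 mg/mL protein, made by dounce homogenisation in PBS pH 7.4 with 1 mM MgCl2, was treated with 10 μM compound for 30 min. After 3 min heating across 48°C-58°C, aliquots were pooled, adjusted to 0.5% NP-40 at 4°C and centrifuged at 21,000xg for 90 min. The supernatant was measured by TMTpro 16plex LC-MS/MS with channel sums equalised.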

[2] = compound: CS(=O)(=O)N1CCN(Cc2cc3nc(-c4cccc5[nH]ncc45)nc(N4CCOCC4)c3s2)CC1 [pictilisib]
In short: as §1

[3] = compound: C[C@@H](Oc1cc(-c2cnn(C3CCNCC3)c2)cnc1N)c1c(Cl)ccc(F)c1Cl [crizotinib]
In short: as §1

[4] = compound: C[C@H](C1=CC=C(C=C1)C(=O)NC2=C3C=CNC3=NC=C2)N
In short: as §1

[5] = compound: C[C@H](Nc1ncnc2nc[nH]c12)c1cc2cccc(Cl)c2c(=O)n1-c1ccccc1 [duvelisib]
In short: as §1

[6] = compound: Cc1cc(Nc2cc(CN3CCOCC3)c3nc(C)c(Cc4ccc(Cl)cc4F)n3n2)n[nH]1 [gandotinib]
In short: as §1

[7] = compound: Cc1cc(Nc2cc(N3CCN(C)CC3)nc(Sc3ccc(NC(=O)C4CC4)cc3)n2)n[nH]1 [tozasertib]
In short: as §1

[8] = compound: Cc1ccc(-n2nc(C(C)(C)C)cc2NC(=O)Nc2ccc(OCCN3CCOCC3)c3ccccc23)cc1 [doramapimod]
In short: as §1

[9] = compound: Cc1ccc(NC(=O)c2ccc(CN3CC[C@H](N(C)C)C3)c(C(F)(F)F)c2)cc1Nc1nccc(-c2cncnc2)n1 [bafetinib]
In short: as §1

[10] = compound: Cc1cccc(CC(=O)N2CCc3c2ccc(-c2cn(C)c4ncnc(N)c24)c3F)n1
In short: as §1

Target	log2 fold change [1]	log2 fold change [2]	log2 fold change [3]	log2 fold change [4]	log2 fold change [5]	log2 fold change [6]	log2 fold change [7]	log2 fold change [8]	log2 fold change [9]	log2 fold change [10]
RPL27 (UniProt P61353)	inactive: -0.04	inactive: 0.008	inactive: 0.013	active: 0.411	inactive: 0.012	inactive: -0.098	inactive: 0.01	inactive: -0.034	inactive: -0.033	inactive: -0.118
RPL15 (UniProt P61313)	inactive: 0.012	inactive: 0.006	inactive: -0.011	inactive: 0.055	inactive: 0.024	inactive: -0.036	inactive: -0.033	inactive: -0.011	inactive: 0.034	inactive: -0.053
RPL18 (UniProt Q07020)	inactive: 0.008	inactive: 0.061	inactive: -0.007	inactive: 0.037	inactive: 0.036	inactive: -0.034	inactive: 0.007	inactive: -0.029	inactive: 0.04	inactive: 0.024
RNGTT (UniProt O60942)	inactive: 0.004	inactive: 0.082	inactive: -0.032	inactive: 0.038	inactive: -0.002	inactive: -0.079	inactive: 0.076	inactive: 0.055	inactive: 0.157	inactive: 0.022
RMDN3 (UniProt Q96TC7)	inactive: -0.019	inactive: -0.02	inactive: -0.059	inactive: -0.067	inactive: 0.012	inactive: 0.031	inactive: 0.051	inactive: 0.055	inactive: -0.027	inactive: 0.093
RPL35A (UniProt P18077)	inactive: 0.016	inactive: 0.05	inactive: -0.004	inactive: -0.098	inactive: 0.027	inactive: 0.051	inactive: 0.028	inactive: -0.001	inactive: 0.052	inactive: 0.067
RHOT2 (UniProt Q8IXI1)	inactive: -0.045	inactive: -0.017	inactive: -0.039	inactive: -0.025	inactive: -0.001	inactive: -0.001	inactive: 0.006	inactive: 0.024	inactive: 0.033	inactive: 0.04
ROCK2 (UniProt O75116)	inactive: -0.012	inactive: -0.013	inactive: 0.04	inactive: 0.22	inactive: 0	inactive: -0.079	inactive: -0.026	inactive: -0.004	inactive: -0.044	inactive: 0.016
RPE (UniProt Q96AT9)	inactive: 0.082	inactive: -0.07	inactive: 0.034	inactive: 0.091	inactive: 0.066	inactive: -0.112	inactive: -0.013	inactive: -0.031	inactive: 0.25	inactive: -0.03
RPL11 (UniProt P62913)	inactive: 0.024	inactive: 0.006	inactive: -0.044	inactive: -0.005	inactive: 0.086	inactive: -0.025	inactive: -0.025	inactive: 0.039	inactive: 0.009	inactive: 0.026
RPA1 (UniProt P27694)	inactive: -0.012	inactive: -0.032	inactive: -0.011	inactive: 0.116	inactive: 0.001	inactive: -0.056	inactive: 0.007	inactive: 0	inactive: -0.036	inactive: -0.075
RIOK1 (UniProt Q9BRS2)	inactive: -0.044	inactive: 0.197	inactive: -0.015	active: 0.92	inactive: 0.037	inactive: -0.138	inactive: 0.008	inactive: 0.025	inactive: -0.056	inactive: -0.134
RIOX2 (UniProt Q8IUF8)	inactive: -0.07	inactive: -0.022	inactive: -0.111	inactive: 0.105	inactive: 0.005	inactive: -0.178	inactive: -0.017	inactive: 0.003	inactive: -0.059	inactive: -0.084
RMI1 (UniProt Q9H9A7)	inactive: 0.127	inactive: -0.005	inactive: 0.059	inactive: -0.038	inactive: 0.025	inactive: -0.013	inactive: -0.034	inactive: -0.009	inactive: 0.026	inactive: 0.044
RING1 (UniProt Q06587)	inactive: -0.008	inactive: -0.024	inactive: -0.035	inactive: -0.048	inactive: -0.007	inactive: 0.052	inactive: 0.005	inactive: -0.035	inactive: 0.04	inactive: 0.061
RPAP3 (UniProt Q9H6T3)	inactive: -0.01	inactive: 0.005	inactive: -0.025	inactive: 0.004	inactive: 0.016	inactive: -0.008	inactive: -0.009	inactive: 0.014	inactive: -0.033	inactive: 0.007
RPF2 (UniProt Q9H7B2)	inactive: 0.037	inactive: -0.05	inactive: -0.094	inactive: 0.202	inactive: -0.009	inactive: -0.064	inactive: 0.066	inactive: -0.119	inactive: -0.042	inactive: 0
RNPS1 (UniProt Q15287)	inactive: 0.025	inactive: 0.044	active: 0.254	inactive: -0.02	inactive: 0.038	inactive: 0	inactive: 0.042	inactive: -0.057	inactive: -0.009	inactive: -0.001
RIOK3 (UniProt O14730)	inactive: 0.026	inactive: -0.032	inactive: -0.031	inactive: 0.021	inactive: -0.007	inactive: -0.009	inactive: -0.008	inactive: 0.036	inactive: -0.021	inactive: 0.008
RPL28 (UniProt P46779)	inactive: 0.01	inactive: 0.047	inactive: 0.043	inactive: 0.234	inactive: 0.018	inactive: -0.098	inactive: -0.018	inactive: -0.046	inactive: 0.056	inactive: -0.059
RPL32 (UniProt P62910)	inactive: -0.001	inactive: -0.014	inactive: 0.006	inactive: 0.073	inactive: 0.008	inactive: -0.026	inactive: -0.112	inactive: -0.045	inactive: 0.07	inactive: -0.019
RNASEH2A (UniProt O75792)	inactive: -0.006	inactive: 0.027	inactive: 0.013	inactive: -0.04	inactive: 0.005	inactive: 0.015	inactive: 0.055	inactive: 0.066	inactive: 0.013	inactive: 0.001
ROCK1 (UniProt Q13464)	inactive: -0.003	inactive: -0.021	inactive: 0.011	–	inactive: 0.006	inactive: -0.04	inactive: 0.027	inactive: -0.025	inactive: -0.016	inactive: 0.031
RNF114 (UniProt Q9Y508)	inactive: 0.023	inactive: 0.007	inactive: 0.009	inactive: -0.025	inactive: 0.021	inactive: 0.011	inactive: -0.022	inactive: -0.002	inactive: 0.018	inactive: -0.003
RNF141 (UniProt Q8WVD5)	inactive: 0.051	inactive: -0.009	inactive: -0.005	inactive: -0.037	inactive: 0.021	inactive: 0.031	inactive: 0.001	inactive: 0.081	inactive: -0.051	inactive: 0.046
RNF167 (UniProt Q9H6Y7)	inactive: -0.04	inactive: -0.07	inactive: 0.09	inactive: -0.04	inactive: -0.045	inactive: 0.016	–	inactive: -0.175	inactive: 0.073	inactive: 0.006
RNF20 (UniProt Q5VTR2)	inactive: -0.007	inactive: -0.003	inactive: 0.005	inactive: -0.053	inactive: 0.009	inactive: -0.006	inactive: -0.012	inactive: 0.001	inactive: -0.001	inactive: 0.02
ROGDI (UniProt Q9GZN7)	inactive: 0.16	inactive: -0.175	inactive: -0.144	inactive: 0.257	inactive: -0.022	inactive: -0.178	–	inactive: -0.038	inactive: -0.115	inactive: 0.119
RNF168 (UniProt Q8IYW5)	inactive: -0.034	inactive: 0.063	inactive: 0.027	inactive: -0.015	inactive: 0.037	inactive: 0.002	inactive: -0.088	inactive: -0.008	inactive: -0.212	inactive: -0.036
RNF149 (UniProt Q8NC42)	inactive: 0.073	inactive: -0.025	inactive: -0.006	inactive: -0.039	inactive: -0.025	inactive: -0.026	–	inactive: -0.099	inactive: -0.105	inactive: -0.013

A run of entries of the results above:
Target	log2 fold change [1]	log2 fold change [2]	log2 fold change [3]	log2 fold change [4]	log2 fold change [5]	log2 fold change [6]	log2 fold change [7]	log2 fold change [8]	log2 fold change [9]	log2 fold change [10]
RNF168 (UniProt Q8IYW5)	inactive: -0.034	inactive: 0.063	inactive: 0.027	inactive: -0.015	inactive: 0.037	inactive: 0.002	inactive: -0.088	inactive: -0.008	inactive: -0.212	inactive: -0.036
RNF149 (UniProt Q8NC42)	inactive: 0.073	inactive: -0.025	inactive: -0.006	inactive: -0.039	inactive: -0.025	inactive: -0.026	–	inactive: -0.099	inactive: -0.105	inactive: -0.013
